{
  "source": "PubChem BioAssay AID248",
  "about": "(DTP/NCI, 2004)",
  "tested_on": "L1210 leukemia ip in BDF1 mice, survival T/C",
  "assay": "NCI In Vivo Anticancer Drug Screen. Data for tumor model L1210 Leukemia (intraperitoneal) in B6D2F1 (BDF1) mice",
  "conditions": "T/C endpoint: mean survival time, higher T/C = longer survival",
  "key": {"[1]": {"conditions": "dose: 400.0 mg/kg/injection, schedule: Q04DX003 (ip), vehicle: Klucel (hydroxypropylcellulose) (HPC)"}, "[2]": {"conditions": "dose: 400.0 mg/kg/injection, schedule: Q04DX003 (ip), vehicle: saline with Tween-80"}},
  "note": "The list does not hold the whole screen: it is rich in T/C values a quarter to a half above the control, in often repeated tests (any T/C) and in doses without a T/C. Further doses and runs are listed elsewhere. T/C is the treated group as % of the vehicle group. Some doses have a count of surviving animals in place of a T/C: the source holds a T/C of zero for them, seemingly a mark for toxic or unscored doses. Some survivor counts are full or nearly so, which does not show that the dose was tolerated: the source hardly ever lists a survival T/C far under the control, and the zero likely stands for such cases as well. Counts of survivors are from the toxicity check (mostly the fifth day) where no day follows; animals may have died later. Schedule codes are those of the source, read here as Q, the interval in days (D) or hours (H), X, the number of doses. Some schedule codes hold Z or #, which are not explained here. Some molecules as drawn cover several salts, stereoisomers or complexes of the source; a dose is that of the sample tested. For survival time, the PubChem record calls one and a half times the control and up active, and a quarter to a half above the control has no call in these data; cut-offs in other NCI protocols can differ. Some doses were run more than once; the values are given in rising order.",
  "data": [
    {"smiles": "O[C@H](CN1CC1)[C@@H](O)CN1CC1", "values": [
      {"measurement": "T/C", "setting": "dose: 0.1 mg/kg/injection, schedule: Q01DX010 (oral), vehicle: other", "result": "127 % of control"},
      {"measurement": "T/C", "setting": "dose: 0.2 mg/kg/injection, schedule: Q01DX010 (oral), vehicle: saline", "result": "142 % of control"},
      {"measurement": "survivor count", "setting": "dose: 0.25 mg/kg/injection, schedule: Q01DX Z (ip), vehicle: methylcellulose (MC)", "result": "9 of 10"},
      {"measurement": "T/C", "setting": "dose: 0.29 mg/kg/injection, schedule: Q01DX Z (oral), vehicle: saline", "result": "139 % of control"},
      {"measurement": "T/C", "setting": "dose: 0.4 mg/kg/injection, schedule: Q01DX010 (oral), vehicle: other", "result": "142 % of control"},
      {"measurement": "survivor count", "setting": "dose: 0.5 mg/kg/injection, schedule: Q01DX Z (ip), vehicle: methylcellulose (MC)", "result": "0 of 10"},
      {"measurement": "survivor count", "setting": "dose: 1.0 mg/kg/injection, schedule: Q01DX Z (ip), vehicle: methylcellulose (MC)", "result": "0 of 10"},
      {"measurement": "T/C", "setting": "dose: 1.0 mg/kg/injection, schedule: Q01DX Z (oral), vehicle: saline", "result": "132 % of control"},
      {"measurement": "survivor count", "setting": "dose: 1.6 mg/kg/injection, schedule: Q01DX010 (oral), vehicle: other", "result": "5 of 6"},
      {"measurement": "survivor count", "setting": "dose: 1.6 mg/kg/injection, schedule: Q01DX010 (oral), vehicle: saline", "result": "6 of 6"},
      {"measurement": "survivor count", "setting": "dose: 2.25 mg/kg/injection, schedule: Q01DX Z (oral), vehicle: saline", "result": "6 of 6"},
      {"measurement": "survivor count", "setting": "dose: 3.0 mg/kg/injection, schedule: Q01DX Z (oral), vehicle: saline", "result": "6 of 6"},
      {"measurement": "survivor count", "setting": "dose: 3.37 mg/kg/injection, schedule: Q01DX Z (oral), vehicle: saline", "result": "6 of 6"},
      {"measurement": "T/C", "setting": "dose: 5.0 mg/kg/injection, schedule: Q01DX Z (ip), vehicle: methylcellulose (MC)", "result": "141 % of control"},
      {"measurement": "survivor count", "setting": "dose: 5.06 mg/kg/injection, schedule: Q01DX Z (oral), vehicle: saline", "result": "6 of 6"},
      {"measurement": "survivor count", "setting": "dose: 6.0 mg/kg/injection, schedule: Q01DX Z (oral), vehicle: saline", "result": "5 of 6"},
      {"measurement": "survivor count", "setting": "dose: 8.9 mg/kg/injection, schedule: Q01DX Z (oral), vehicle: saline", "result": "3 of 6"},
      {"measurement": "survivor count", "setting": "dose: 10.0 mg/kg/injection, schedule: Q01DX Z (ip), vehicle: methylcellulose (MC)", "result": "1 of 10"},
      {"measurement": "survivor count", "setting": "dose: 13.3 mg/kg/injection, schedule: Q01DX Z (oral), vehicle: saline", "result": "0 of 6"},
      {"measurement": "survivor count", "setting": "dose: 16.0 mg/kg/injection, schedule: Q01DX Z (ip), vehicle: methylcellulose (MC)", "result": "0 of 6"},
      {"measurement": "survivor count", "setting": "dose: 20.0 mg/kg/injection, schedule: Q01DX Z (ip), vehicle: methylcellulose (MC)", "result": "1 of 10"},
      {"measurement": "survivor count", "setting": "dose: 20.0 mg/kg/injection, schedule: Q01DX Z (oral), vehicle: saline", "result": "0 of 6"},
      {"measurement": "survivor count", "setting": "dose: 25.0 mg/kg/injection, schedule: Q01DX Z (ip), vehicle: methylcellulose (MC)", "result": "0 of 6"},
      {"measurement": "survivor count", "setting": "dose: 30.0 mg/kg/injection, schedule: Q01DX Z (oral), vehicle: saline", "result": "0 of 6"},
      {"measurement": "survivor count", "setting": "dose: 37.5 mg/kg/injection, schedule: Q01DX Z (ip), vehicle: methylcellulose (MC)", "result": "0 of 6"}
    ]},
    {"smiles": "Nc1ccc(N=Nc2ccccc2)c(N)n1", "values": [
      {"measurement": "survivor count", "setting": "dose: 200.0 mg/kg/injection, schedule: Q04DX003 (ip), vehicle: saline", "result": "2 of 4"},
      {"measurement": "survivor count", "setting": "[1]", "result": "1 of 6"},
      {"measurement": "survivor count", "setting": "dose: 400.0 mg/kg/injection, schedule: Q04DX003 (ip), vehicle: saline", "result": "0 of 4"}
    ]},
    {"smiles": "CC(C)=CCNC12CC3CC(CC(C3)C1)C2", "values": [
      {"measurement": "survivor count", "setting": "dose: 75.0 mg/kg/injection, schedule: Q01DX001 (ip), vehicle: saline", "result": "3 of 6"},
      {"measurement": "survivor count", "setting": "dose: 150.0 mg/kg/injection, schedule: Q01DX001 (ip), vehicle: saline", "result": "0 of 6"},
      {"measurement": "survivor count", "setting": "dose: 300.0 mg/kg/injection, schedule: Q01DX001 (ip), vehicle: saline", "result": "0 of 6"}
    ]},
    {"smiles": "O=C(Nc1ccc(C2=NCCN2)cc1)Nc1cccc(NC(=O)Nc2cccc(C3=NCCN3)c2)c1", "values": [
      {"measurement": "T/C", "setting": "dose: 4.0 mg/kg/injection, schedule: Q01DX Z (ip), vehicle: carboxymethylcellulose (CMC)", "result": "145 and 147 % of control"},
      {"measurement": "survivor count", "setting": "dose: 31.0 mg/kg/injection, schedule: Q01DX Z (ip), vehicle: water", "result": "6 of 6"},
      {"measurement": "survivor count", "setting": "dose: 62.0 mg/kg/injection, schedule: Q01DX Z (ip), vehicle: saline", "result": "6 of 6"},
      {"measurement": "survivor count", "setting": "dose: 125.0 mg/kg/injection, schedule: Q01DX Z (ip), vehicle: saline", "result": "5 of 6"},
      {"measurement": "survivor count", "setting": "dose: 250.0 mg/kg/injection, schedule: Q01DX Z (ip), vehicle: saline", "result": "1 of 6"},
      {"measurement": "survivor count", "setting": "dose: 500.0 mg/kg/injection, schedule: Q01DX Z (ip), vehicle: saline", "result": "0 of 6"}
    ]},
    {"smiles": "NC(Cc1ccc(N(CCCl)Cc2ccccc2)cc1)C(=O)O", "note": "(stereo unspecified)", "values": [
      {"measurement": "survivor count", "setting": "dose: 50.0 mg/kg/injection, schedule: Q01DX009 (ip), vehicle: distilled water + Tween-80", "result": "10 of 10"}
    ]},
    {"smiles": "CN(C)CCSC1=CC(=O)c2ccccc2C1=O", "values": [
      {"measurement": "survivor count", "setting": "dose: 3.12 mg/kg/injection, schedule: Q01DX009 (ip), vehicle: water", "result": "3 of 6"},
      {"measurement": "survivor count", "setting": "dose: 6.25 mg/kg/injection, schedule: Q01DX009 (ip), vehicle: water", "result": "1 of 6"},
      {"measurement": "survivor count", "setting": "dose: 12.5 mg/kg/injection, schedule: Q01DX009 (ip), vehicle: water", "result": "0 of 6"},
      {"measurement": "survivor count", "setting": "dose: 25.0 mg/kg/injection, schedule: Q01DX009 (ip), vehicle: water", "result": "0 of 6"},
      {"measurement": "survivor count", "setting": "dose: 50.0 mg/kg/injection, schedule: Q01DX009 (ip), vehicle: water", "result": "0 of 6"},
      {"measurement": "survivor count", "setting": "dose: 100.0 mg/kg/injection, schedule: Q01DX009 (ip), vehicle: water", "result": "0 of 6"},
      {"measurement": "survivor count", "setting": "dose: 200.0 mg/kg/injection, schedule: Q01DX009 (ip), vehicle: water", "result": "0 of 6"},
      {"measurement": "survivor count", "setting": "dose: 400.0 mg/kg/injection, schedule: Q01DX009 (ip), vehicle: water", "result": "0 of 6"}
    ]},
    {"smiles": "COc1ccc(-c2cc3c(OC)ccc(OC)c3[nH]2)cc1OC", "values": [
      {"measurement": "survivor count", "setting": "dose: 100.0 mg/kg/injection, schedule: Q04DX002 (ip), vehicle: Klucel (hydroxypropylcellulose) (HPC)", "result": "3 of 3"}
    ]},
    {"smiles": "COc1c(NC(=O)c2ccccc2Cl)cccc1[N+](=O)[O-]", "values": [
      {"measurement": "survivor count", "setting": "dose: 200.0 mg/kg/injection, schedule: Q01DX009 (ip), vehicle: Klucel (hydroxypropylcellulose) (HPC)", "result": "6 of 6"},
      {"measurement": "survivor count", "setting": "dose: 400.0 mg/kg/injection, schedule: Q01DX009 (ip), vehicle: Klucel (hydroxypropylcellulose) (HPC)", "result": "6 of 6"}
    ]},
    {"smiles": "C=CCc1ccc(OCCOCCNC2CC3CCC2(C)C3(C)C)c(OC)c1", "note": "(stereo unspecified)", "values": [
      {"measurement": "survivor count", "setting": "dose: 200.0 mg/kg/injection, schedule: Q04DX003 (ip), vehicle: Klucel (hydroxypropylcellulose) (HPC)", "result": "0 of 6"},
      {"measurement": "survivor count", "setting": "[1]", "result": "0 of 6"}
    ]},
    {"smiles": "O=C(CC(O)(c1ccccc1)c1ccccc1)Nc1ccccn1", "values": [
      {"measurement": "survivor count", "setting": "dose: 400.0 mg/kg/injection, schedule: Q01DX001 (ip), vehicle: other", "result": "4 of 4"}
    ]},
    {"smiles": "Cc1cc(N(CCCl)CCCl)ccc1/C=N\\Nc1nncn1N", "values": [
      {"measurement": "T/C", "setting": "dose: 50.0 mg/kg/injection, schedule: Q01DX009 (ip), vehicle: carboxymethylcellulose (CMC)", "result": "127 and 134 % of control"},
      {"measurement": "T/C", "setting": "dose: 200.0 mg/kg/injection, schedule: Q01DX009 (ip), vehicle: carboxymethylcellulose (CMC)", "result": "144 % of control"},
      {"measurement": "survivor count", "setting": "dose: 400.0 mg/kg/injection, schedule: Q01DX009 (ip), vehicle: carboxymethylcellulose (CMC)", "result": "5 of 6"}
    ]},
    {"smiles": "CCOC(=O)N/N=C\\c1cc(OC)c(OC)c(OC)c1", "values": [
      {"measurement": "survivor count", "setting": "dose: 200.0 mg/kg/injection, schedule: Q01DX009 (ip), vehicle: saline with Tween-80", "result": "3 of 6"},
      {"measurement": "survivor count", "setting": "[2]", "result": "6 of 6"}
    ]},
    {"smiles": "CC(CC(=O)N1CCCCC1)CC(=O)N1CCCCC1", "values": [
      {"measurement": "survivor count", "setting": "dose: 400.0 mg/kg/injection, schedule: Q01DX001 (ip), vehicle: saline", "result": "1 of 6"}
    ]},
    {"smiles": "S=c1[nH]c2ccccc2s1", "values": [
      {"measurement": "survivor count", "setting": "dose: 400.0 mg/kg/injection, schedule: Q04DX002 (ip), vehicle: saline", "result": "2 of 3"},
      {"measurement": "survivor count", "setting": "[2]", "result": "0 of 6"}
    ]},
    {"smiles": "CCOc1ccc(N=O)c(O)c1", "values": [
      {"measurement": "survivor count", "setting": "dose: 300.0 mg/kg/injection, schedule: Q01DX001 (ip), vehicle: carboxymethylcellulose (CMC)", "result": "2 of 6"}
    ]}
  ]
}
